Reference: the supplement of paper PMC10849652
The other results are listed elsewhere or left out.

Sequences of proteins named here, by UniProt entry; tags and fusion partners are left off. A change or cut given only in a name is not applied to a line headed by its entry.
UniProt Q15286: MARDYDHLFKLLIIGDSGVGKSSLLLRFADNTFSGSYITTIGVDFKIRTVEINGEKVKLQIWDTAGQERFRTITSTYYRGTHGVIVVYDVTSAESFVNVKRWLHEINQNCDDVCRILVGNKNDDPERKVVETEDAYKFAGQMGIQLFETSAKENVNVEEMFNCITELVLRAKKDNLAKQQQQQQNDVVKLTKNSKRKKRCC
UniProt Q86YS3: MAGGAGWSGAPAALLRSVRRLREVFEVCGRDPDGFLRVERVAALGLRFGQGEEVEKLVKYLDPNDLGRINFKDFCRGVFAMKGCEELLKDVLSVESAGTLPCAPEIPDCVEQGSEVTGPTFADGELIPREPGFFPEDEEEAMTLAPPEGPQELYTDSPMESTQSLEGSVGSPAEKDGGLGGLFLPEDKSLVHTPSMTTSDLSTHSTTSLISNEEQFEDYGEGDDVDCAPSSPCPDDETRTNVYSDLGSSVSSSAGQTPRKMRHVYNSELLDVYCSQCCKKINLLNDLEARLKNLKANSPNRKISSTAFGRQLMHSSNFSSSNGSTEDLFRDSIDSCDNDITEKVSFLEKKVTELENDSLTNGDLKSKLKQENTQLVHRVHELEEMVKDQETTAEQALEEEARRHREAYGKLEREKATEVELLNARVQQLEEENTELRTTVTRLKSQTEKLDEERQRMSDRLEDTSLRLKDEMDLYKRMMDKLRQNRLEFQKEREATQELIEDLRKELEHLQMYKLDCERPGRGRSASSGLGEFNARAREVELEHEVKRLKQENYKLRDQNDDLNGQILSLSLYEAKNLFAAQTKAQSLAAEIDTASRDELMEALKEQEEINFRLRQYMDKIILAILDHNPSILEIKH
UniProt Q96QF0: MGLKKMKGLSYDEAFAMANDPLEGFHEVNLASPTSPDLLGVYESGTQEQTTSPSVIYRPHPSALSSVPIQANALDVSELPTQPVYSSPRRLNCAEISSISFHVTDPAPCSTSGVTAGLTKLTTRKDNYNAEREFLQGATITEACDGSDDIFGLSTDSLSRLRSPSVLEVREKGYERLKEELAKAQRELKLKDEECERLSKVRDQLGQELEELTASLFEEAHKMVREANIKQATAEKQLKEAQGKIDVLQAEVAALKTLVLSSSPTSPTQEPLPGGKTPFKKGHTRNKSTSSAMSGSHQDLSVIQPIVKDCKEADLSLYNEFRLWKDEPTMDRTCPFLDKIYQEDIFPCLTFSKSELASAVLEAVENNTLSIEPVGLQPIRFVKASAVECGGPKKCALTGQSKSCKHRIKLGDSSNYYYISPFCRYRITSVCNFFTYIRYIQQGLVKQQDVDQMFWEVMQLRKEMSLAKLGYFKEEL
UniProt Q06609, whole entry, looked up: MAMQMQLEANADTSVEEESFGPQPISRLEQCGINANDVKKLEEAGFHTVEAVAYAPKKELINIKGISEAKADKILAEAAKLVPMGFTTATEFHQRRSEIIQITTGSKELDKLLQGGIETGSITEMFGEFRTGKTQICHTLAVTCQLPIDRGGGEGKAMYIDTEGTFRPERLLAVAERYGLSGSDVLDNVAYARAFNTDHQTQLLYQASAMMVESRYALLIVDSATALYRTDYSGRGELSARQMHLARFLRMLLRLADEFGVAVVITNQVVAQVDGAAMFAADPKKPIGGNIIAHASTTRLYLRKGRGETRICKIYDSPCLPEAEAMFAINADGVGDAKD
UniProt Q13905: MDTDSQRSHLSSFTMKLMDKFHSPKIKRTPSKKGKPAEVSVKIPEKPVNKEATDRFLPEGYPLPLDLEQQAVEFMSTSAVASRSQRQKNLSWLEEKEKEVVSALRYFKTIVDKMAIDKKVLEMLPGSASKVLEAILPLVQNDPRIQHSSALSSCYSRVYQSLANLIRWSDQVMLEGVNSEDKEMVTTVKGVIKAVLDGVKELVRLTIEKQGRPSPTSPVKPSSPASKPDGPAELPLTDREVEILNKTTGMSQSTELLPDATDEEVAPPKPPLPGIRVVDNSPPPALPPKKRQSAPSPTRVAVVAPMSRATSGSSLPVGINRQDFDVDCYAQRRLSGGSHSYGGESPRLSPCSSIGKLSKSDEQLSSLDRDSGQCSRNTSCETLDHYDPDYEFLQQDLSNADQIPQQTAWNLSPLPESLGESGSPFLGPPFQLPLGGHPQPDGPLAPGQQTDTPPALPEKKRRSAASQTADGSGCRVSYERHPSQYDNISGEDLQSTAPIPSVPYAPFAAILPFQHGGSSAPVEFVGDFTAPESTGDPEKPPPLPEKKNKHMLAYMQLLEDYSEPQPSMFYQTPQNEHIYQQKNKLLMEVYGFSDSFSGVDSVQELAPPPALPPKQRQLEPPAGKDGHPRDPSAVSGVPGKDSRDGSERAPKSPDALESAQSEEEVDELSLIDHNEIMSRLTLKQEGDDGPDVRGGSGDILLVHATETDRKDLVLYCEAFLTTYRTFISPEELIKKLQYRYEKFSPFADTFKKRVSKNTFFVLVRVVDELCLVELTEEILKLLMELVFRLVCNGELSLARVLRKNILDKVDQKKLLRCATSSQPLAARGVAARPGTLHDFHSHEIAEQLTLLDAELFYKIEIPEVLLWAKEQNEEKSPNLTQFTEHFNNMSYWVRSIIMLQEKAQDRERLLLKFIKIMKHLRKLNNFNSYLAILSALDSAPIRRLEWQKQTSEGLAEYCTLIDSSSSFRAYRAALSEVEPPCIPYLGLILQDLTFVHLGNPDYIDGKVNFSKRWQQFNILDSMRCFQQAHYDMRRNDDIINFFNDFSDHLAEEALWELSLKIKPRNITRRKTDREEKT
UniProt Q3YEC7: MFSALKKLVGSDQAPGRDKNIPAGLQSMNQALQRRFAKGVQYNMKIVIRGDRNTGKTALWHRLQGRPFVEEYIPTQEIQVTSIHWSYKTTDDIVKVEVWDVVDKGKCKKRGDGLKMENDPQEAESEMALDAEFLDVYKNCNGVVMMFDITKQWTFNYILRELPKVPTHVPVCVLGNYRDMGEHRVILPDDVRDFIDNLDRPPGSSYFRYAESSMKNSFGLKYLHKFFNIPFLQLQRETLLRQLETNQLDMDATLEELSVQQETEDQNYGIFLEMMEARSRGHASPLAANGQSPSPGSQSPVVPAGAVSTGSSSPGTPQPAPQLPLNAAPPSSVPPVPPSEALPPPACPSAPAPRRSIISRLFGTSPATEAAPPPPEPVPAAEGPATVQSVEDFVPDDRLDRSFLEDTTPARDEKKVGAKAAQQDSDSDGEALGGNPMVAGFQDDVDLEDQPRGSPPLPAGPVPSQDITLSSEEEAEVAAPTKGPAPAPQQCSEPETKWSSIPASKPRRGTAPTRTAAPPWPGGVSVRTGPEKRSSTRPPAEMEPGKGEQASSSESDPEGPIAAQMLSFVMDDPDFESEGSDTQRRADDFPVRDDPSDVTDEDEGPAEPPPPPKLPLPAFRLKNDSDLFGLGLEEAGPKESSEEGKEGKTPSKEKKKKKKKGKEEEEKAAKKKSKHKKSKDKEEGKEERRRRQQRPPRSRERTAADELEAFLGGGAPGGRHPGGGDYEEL
UniProt P51159: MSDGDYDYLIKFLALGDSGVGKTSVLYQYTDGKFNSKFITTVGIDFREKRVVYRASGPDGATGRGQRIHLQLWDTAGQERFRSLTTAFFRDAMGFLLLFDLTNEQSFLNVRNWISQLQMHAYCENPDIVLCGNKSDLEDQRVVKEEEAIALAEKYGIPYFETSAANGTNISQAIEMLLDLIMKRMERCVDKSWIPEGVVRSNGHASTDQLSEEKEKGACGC
UniProt Q8WU10: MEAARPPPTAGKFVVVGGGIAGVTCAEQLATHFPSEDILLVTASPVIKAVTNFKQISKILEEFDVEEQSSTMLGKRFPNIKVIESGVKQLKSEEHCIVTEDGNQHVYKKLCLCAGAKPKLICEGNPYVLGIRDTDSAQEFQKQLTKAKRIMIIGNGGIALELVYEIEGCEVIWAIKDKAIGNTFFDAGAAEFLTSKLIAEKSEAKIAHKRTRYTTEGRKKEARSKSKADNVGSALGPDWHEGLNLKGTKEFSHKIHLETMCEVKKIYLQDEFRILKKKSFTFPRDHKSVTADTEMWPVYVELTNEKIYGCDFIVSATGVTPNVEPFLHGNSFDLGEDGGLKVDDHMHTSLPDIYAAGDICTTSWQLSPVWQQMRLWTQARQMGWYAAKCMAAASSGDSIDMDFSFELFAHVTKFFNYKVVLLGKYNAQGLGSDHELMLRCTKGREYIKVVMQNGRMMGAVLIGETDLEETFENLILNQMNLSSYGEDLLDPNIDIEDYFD
UniProt Q86X10: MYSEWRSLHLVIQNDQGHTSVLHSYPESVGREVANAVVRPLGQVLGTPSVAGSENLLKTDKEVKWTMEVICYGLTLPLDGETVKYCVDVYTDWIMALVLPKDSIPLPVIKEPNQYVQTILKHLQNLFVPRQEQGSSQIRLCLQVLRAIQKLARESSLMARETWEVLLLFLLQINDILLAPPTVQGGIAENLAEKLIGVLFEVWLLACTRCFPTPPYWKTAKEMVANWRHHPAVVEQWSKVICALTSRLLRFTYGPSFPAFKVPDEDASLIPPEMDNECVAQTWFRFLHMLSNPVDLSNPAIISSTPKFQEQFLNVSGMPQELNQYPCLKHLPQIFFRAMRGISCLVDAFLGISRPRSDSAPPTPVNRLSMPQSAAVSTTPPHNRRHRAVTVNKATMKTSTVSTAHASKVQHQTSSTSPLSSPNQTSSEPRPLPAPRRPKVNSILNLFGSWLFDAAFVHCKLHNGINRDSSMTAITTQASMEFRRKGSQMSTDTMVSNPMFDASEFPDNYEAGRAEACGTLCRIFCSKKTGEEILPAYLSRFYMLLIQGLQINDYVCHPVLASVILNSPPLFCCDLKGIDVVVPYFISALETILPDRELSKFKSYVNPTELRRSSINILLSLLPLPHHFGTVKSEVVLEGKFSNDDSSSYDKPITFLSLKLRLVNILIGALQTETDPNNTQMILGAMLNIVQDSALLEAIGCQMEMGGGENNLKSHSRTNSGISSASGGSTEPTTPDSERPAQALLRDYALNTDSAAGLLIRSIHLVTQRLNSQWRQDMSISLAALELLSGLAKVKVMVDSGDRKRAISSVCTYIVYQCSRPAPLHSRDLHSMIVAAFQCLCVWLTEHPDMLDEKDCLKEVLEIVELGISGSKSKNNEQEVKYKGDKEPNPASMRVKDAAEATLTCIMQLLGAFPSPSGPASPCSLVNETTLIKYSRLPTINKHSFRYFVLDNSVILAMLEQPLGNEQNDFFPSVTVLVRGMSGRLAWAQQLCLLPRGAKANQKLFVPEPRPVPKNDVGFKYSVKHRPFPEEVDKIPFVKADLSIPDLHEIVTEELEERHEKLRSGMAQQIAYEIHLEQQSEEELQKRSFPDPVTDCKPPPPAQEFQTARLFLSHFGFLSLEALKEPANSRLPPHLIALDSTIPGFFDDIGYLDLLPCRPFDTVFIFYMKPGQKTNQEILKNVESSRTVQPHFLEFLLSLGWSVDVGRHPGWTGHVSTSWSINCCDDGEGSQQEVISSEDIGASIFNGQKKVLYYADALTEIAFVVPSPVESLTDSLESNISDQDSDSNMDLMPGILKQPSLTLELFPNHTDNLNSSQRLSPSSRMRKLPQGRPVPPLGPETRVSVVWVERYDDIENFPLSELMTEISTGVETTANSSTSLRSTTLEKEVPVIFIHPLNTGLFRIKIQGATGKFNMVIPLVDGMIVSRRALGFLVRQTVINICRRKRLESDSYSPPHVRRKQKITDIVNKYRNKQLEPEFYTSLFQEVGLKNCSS
UniProt Q53H96: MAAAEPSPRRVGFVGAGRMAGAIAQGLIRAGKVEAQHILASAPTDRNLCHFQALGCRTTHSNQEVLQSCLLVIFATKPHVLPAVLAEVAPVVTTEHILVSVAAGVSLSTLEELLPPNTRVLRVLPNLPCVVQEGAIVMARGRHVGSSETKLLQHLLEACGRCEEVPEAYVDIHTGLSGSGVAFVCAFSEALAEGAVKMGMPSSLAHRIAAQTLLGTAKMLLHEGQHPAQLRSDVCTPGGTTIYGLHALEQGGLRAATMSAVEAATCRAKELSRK
UniProt Q9H974: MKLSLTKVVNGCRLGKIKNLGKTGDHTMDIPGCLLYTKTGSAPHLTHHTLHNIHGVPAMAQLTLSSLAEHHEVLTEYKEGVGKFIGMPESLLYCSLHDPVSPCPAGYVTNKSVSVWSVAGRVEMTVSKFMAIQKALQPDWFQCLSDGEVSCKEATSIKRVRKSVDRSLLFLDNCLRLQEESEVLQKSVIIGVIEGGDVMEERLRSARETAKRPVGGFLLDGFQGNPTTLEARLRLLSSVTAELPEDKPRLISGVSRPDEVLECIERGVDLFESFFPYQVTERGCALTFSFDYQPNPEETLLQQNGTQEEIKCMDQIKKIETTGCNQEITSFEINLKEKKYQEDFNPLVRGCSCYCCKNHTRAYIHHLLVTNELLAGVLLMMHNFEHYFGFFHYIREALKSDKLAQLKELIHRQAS
UniProt Q9NX57: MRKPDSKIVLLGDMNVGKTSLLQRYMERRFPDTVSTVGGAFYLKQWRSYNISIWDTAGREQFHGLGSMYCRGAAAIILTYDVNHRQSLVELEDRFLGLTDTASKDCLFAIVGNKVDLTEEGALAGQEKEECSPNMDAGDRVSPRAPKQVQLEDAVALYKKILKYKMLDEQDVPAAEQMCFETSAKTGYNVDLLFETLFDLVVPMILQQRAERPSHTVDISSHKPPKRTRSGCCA

compound: CC1=C2C(=CC=C1)N=C(N(C2=O)C3=CC=CC=C3C)CN4C=NC5=C(N=CN=C54)N; experiment: log2 fold change, soluble protein after heating vs DMSO (PISA); higher = thermal stabilisation; K562 lysate, 10 uM; active = over 0.2 and 3.5 SD of the protein, either way, in both replicates (recomputed)
Procedure, shortened: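 A 30 min treatment with 10 μM compound was applied to crude K562 extract at 1 mg/mL protein in PBS pH 7.4 with 1 mM MgCl2. Heating for 3 min spanned 48°C-58°C, after which aliquots were pooled, adjusted to 0.5% NP-40 at 4°C and spun at 21,000xg for 90 min. TMTpro 16plex LC-MS/MS of the supernatant, with channel sums equalised, gave values recorded as log-two fold change in thermal stability against solvent controls, from duplicates.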

Target	log2 fold change
QTRT1 (UniProt Q9BXR0)	inactive: 0.024
RAB35 (UniProt Q15286)	inactive: 0.039
R3HCC1 (UniProt Q9Y3T6)	inactive: 0.006
RAB5B (UniProt P61020)	inactive: -0.006
RAB11FIP4 (UniProt Q86YS3)	inactive: -0.011
RACK1 (UniProt D6RF23)	inactive: -0.021
QSOX2 (UniProt Q6ZRP7)	inactive: 0.001
QKI (UniProt Q96PU8)	inactive: -0.023
RAB3IP (UniProt Q96QF0)	inactive: 0.139
RANBP3 (UniProt Q9H6Z4)	inactive: 0.023
RAP2A (UniProt P10114)	inactive: -0.037
RAD51 (UniProt Q06609)	inactive: -0.032
RAB4A (UniProt P20338)	inactive: -0.013
RAB2B (UniProt Q8WUD1)	inactive: 0.023
PYCR1 (UniProt J3QKT4)	inactive: 0.01
RABAC1 (UniProt Q9UI14)	inactive: 0.049
RAD50 isoform 2 (UniProt Q92878)	inactive: 0.004
RAPGEF1 isoform 3 (UniProt Q13905)	inactive: 0.07
RAB5A (UniProt P20339)	inactive: 0.033
RAB4B isoform 2 (UniProt P61018)	inactive: 0.047

Target	log2 fold change
RAB14 (UniProt P61106)	inactive: 0.013
RAF1 isoform 2 (UniProt P04049)	inactive: -0.104
RANBP10 (UniProt Q6VN20)	inactive: 0.044
RABL6 (UniProt Q3YEC7)	inactive: 0.031
PXK (UniProt Q7Z7A4)	inactive: 0.018
RAP1GAP isoform 4 (UniProt P47736)	inactive: -0.019
RABGAP1L isoform 5 (UniProt Q5R372)	inactive: -0.127
RAB27A (UniProt P51159)	inactive: -0.007
PYROXD1 (UniProt Q8WU10)	inactive: 0.188
RABGAP1L isoform 3 (UniProt Q5R372)	inactive: 0.017
RALGAPB (UniProt Q86X10)	inactive: 0.085
RAP2C (UniProt Q9Y3L5)	inactive: 0.011
RAD23B (UniProt P54727)	inactive: -0.001
PYURF (UniProt Q96I23)	inactive: 0.126
RAC2 (UniProt P15153)	inactive: -0.032
PYCR3 (UniProt Q53H96)	inactive: 0.033
QTRT2 isoform 4 (UniProt Q9H974)	inactive: -0.03
RANBP3 isoform 2 (UniProt Q9H6Z4)	inactive: 0.113
RAP2B (UniProt P61225)	inactive: 0.048
RAB20 (UniProt Q9NX57)	inactive: 0.07

Copied from the list:
Under log2 fold change, PXK (UniProt Q7Z7A4) reads inactive: 0.018
Under log2 fold change, QTRT2 isoform 4 (UniProt Q9H974) reads inactive: -0.03
Under log2 fold change, RAD23B (UniProt P54727) reads inactive: -0.001
